# Screening data, single-dose tests

Values are the deposited “Percent Effect”, in %. The record does not define 0% and 100%; most values in the screen are far below 50% and negative numbers occur (in some assays of this library far below -100). Compounds were drawn at random from those tested, without regard to their results.

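Assay of Toxoplasma gondii numbers, read through their beta-galactosidase reporter with a colour substrate. Compounds at 50 µM. The record gives no direction; the compounds picked for IC50 retests had high values, so higher reads as fewer parasites. Size under these conditions: about 18,000 compounds, about 170 of them at 50% or above in at least one test.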

| # | Compound | effect |
|---|---|---|
| 1 | `CCn1nc(C(C)C)cc1C(=O)NC(C)COC` (stereo unspecified) | -3.825% |
| 2 | `CCC(=O)c1ccc(CN)cc1` | -16.38% |
| 3 | `COc1ccc2nc(NCC(O)CO)ccc2c1` (stereo unspecified) | -3.93% |
| 4 | `NC(=O)C(OC(=O)CCc1ccc(F)cc1)C1CC1` (stereo unspecified) | -1.786% |
| 5 | `Cc1cccc(OCC(O)Cn2ccnc2C)c1` (stereo unspecified) | -44.28% |
| 6 | `N#CCCCN1CCN(Cc2cccc(O)c2)CC1` | 6.367% |
| 7 | `O=C(C1CCS(=O)(=O)C1)N1CCc2ccccc2C1` (stereo unspecified) | -0.3053% |
| 8 | `CC(C)CC(C)Oc1cc(CN)ccn1` (stereo unspecified) | -0.2627% |
| 9 | `Cc1ccc(CN)c(OCC2CCOC2)c1` (stereo unspecified) | 4.938% |
| 10 | `CCCSCC(=O)NC(C)Cn1cncn1` (stereo unspecified) | -4.26% |
| 11 | `CC(Cn1ccnc1)NC(=O)NCc1cccnc1` (stereo unspecified) | 20.32% |
| 12 | `NC1CCN(C2CC2)C1=O` (stereo unspecified) | 3.87% |
| 13 | `NC(C1CC1)C1(CO)CCOCC1` (stereo unspecified) | 2.447% |
| 14 | `Cc1cc(C)c(S(=O)(=O)NCCO)c(C)c1` | 17.82% |
| 15 | `Nc1cccnc1NCc1cccnc1` | 56.86% |
| 16 | `Cc1cnc(C(=O)N(Cc2cnn(C)c2)C2CC2)cn1` | 2.159% |
| 17 | `Cc1ccc(Br)c(C(=O)NC2CCS(=O)(=O)CC2)c1` | -15.33% |
| 18 | `Cc1ncc(C(=O)N2C[C@@H]3CCCN[C@@H]3C2)c(C)n1` | 63.53% |
| 19 | `COc1c(F)cc(C(=O)NC2CCNC2)cc1F` (stereo unspecified) | 14.55% |
| 20 | `CCCN1CCC(NC(=O)C(C)C)CC1` | -21.65% |
| 21 | `COCC(N)c1ccc(F)c(F)c1` (stereo unspecified) | 0.04366% |
| 22 | `CN(CC(N)=O)Cc1cccc(Cl)c1` | 8.173% |
| 23 | `CC(C)(C)C(=O)NC1CCCC1` | -30.75% |

Repeated from the top, 2 entries:

| Compound | effect |
|---|---|
| `CCn1nc(C(C)C)cc1C(=O)NC(C)COC` (stereo unspecified) | -3.825% |
| `CCC(=O)c1ccc(CN)cc1` | -16.38% |

Data taken from ChEMBL document CHEMBL3988442, “University of Dundee, Small-Polar-MMV Screening Library” (2021).